From publication PMC10543426, “The PALB2 DNA-binding domain is an intrinsically disordered recombinase” (Research Square, 2023) come the findings set out here.

The comparison behind a weaker result is the experiment's own reference, which may not be listed here. Where a protein sequence is shown, tags need not be part of it.

The series has as its target T1, Δ40-DBD (Homo sapiens) (UniProt Q86YC2).
T1 sequence (looked up, limits assumed): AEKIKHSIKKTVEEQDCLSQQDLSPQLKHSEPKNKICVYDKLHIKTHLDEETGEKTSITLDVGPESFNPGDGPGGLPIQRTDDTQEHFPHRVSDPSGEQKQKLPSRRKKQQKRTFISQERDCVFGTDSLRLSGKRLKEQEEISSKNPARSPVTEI
The experiment in a line: smFRET. Conditions: free DNA remains at 10 uM protein, AUC of DNA complexes: 0.1 M NaCl, 20 C, recombinant protein, label: 5' Cy3, Cy5 at position 50, single-stranded DNA.

As for “TTTTTTTTTTTTTTTTTTTTTTTTTTTTTTTTTTTTTTTTTTTTTTTTTT [Cy3-dT50-Cy5]”, the binding result is reported as “binds more weakly”.
